Source: article PMC6135765
Results are given in words; binding and its absence hold for the method and conditions named. Sequences can lack the tags named with a protein. Blank lines part the entries; values can stand above or below the binder they belong to.

Key:
[1] = target: His8-MBP:AtHb2 (Arabidopsis thaliana class 2 non-symbiotic hemoglobin / phytoglobin, before tag cleavage) (Arabidopsis thaliana) (UniProt O24521); assay: SEC; analytical size exclusion chromatography of the purified proteins, before and after His8-MBP removal; apparent native size in solution; both purified
[2] = target: AtHb2 (Arabidopsis thaliana class 2 non-symbiotic hemoglobin / phytoglobin, His8-MBP removed) (Arabidopsis thaliana) (UniProt O24521); assay: as above

- binding [1]: no binding
B1: His8-MBP:AtHb2 (Arabidopsis thaliana class 2 non-symbiotic hemoglobin / phytoglobin, before tag cleavage) (protein, UniProt O24521 1-158)
chain: MGEIGFTEKQEALVKESWEILKQDIPKYSLHFFSQILEIAPAAKGLFSFLRDSDEVPHNNPKLKAHAVKVFKMTCETAIQLREEGKVVVADTTLQYLGSIHLKSGVIDPHFEVVKEALLRTLKEGLGEKYNEEVEGAWSQAYDHLALAIKTEMKQEES

- binding [2]: no binding
B2: AtHb2 (Arabidopsis thaliana class 2 non-symbiotic hemoglobin / phytoglobin, His8-MBP removed) (protein, UniProt O24521 1-158)
chain: B1 chain
